In article doi:10.1101/2024.12.25.630315 (bioRxiv, 2024) one finds isolated mass and isolated yield data, which are given here for 1 substance.

The nature of the series: general procedure: Fmoc solid-phase peptide synthesis; Rink Amide resin; Oxyma/DIC. The conditions noted are these: whole synthesis, scale 0.1 mmol.

“NH2-PEG12-(Cys-Pro-Nal-Asp-Cys-Met-hArg-dAsp-Trp-Ser-Thr-Pro-Hyp-Trp-Cys)-TATA” displayed an isolated mass of 30 mg and an isolated yield of 25% yield.
